# Assay results from PubChem BioAssay AID493014 (National Center for Advancing Translational Sciences (NCATS), 2011).
# The campaign covered roughly 340,000 compounds. About 170 (0.05%) were called active. The inconclusive results got no clear call from the source; some entries with a clear call stand among them for comparison. Calls come from the whole dose curve; as a rule, active = well fitted inhibition curve with a large enough effect in the signal ratio, with a control signal flat (not every such curve was filed as active); inconclusive = small, poorly fitted or top-dose-only effect, or effect the other way, or a change in a side signal; inactive = flat fitted curve, though single readings scatter; the % refers to the signal ratio. Potencies beside an inconclusive call are fits to weak or partial responses and may not hold up.
# Test: qHTS Assay to Find Inhibitors of Chronic Active B-Cell Receptor Signaling;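 for activity change, negative = inhibition: plate controls were basal doxycycline-induced cells for no effect and cells given 10 µM MG132 for full effect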
# Conditions: ABC-DLBCL IkBa-CBG/CBR reporter, luminescence ratio (green luciferase fused to IkBa over red control in TMD8 lymphoma cells), 4 h; activity change, negative = inhibition: at 46.1 µM (top of the series)
# How it was run: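 Concentration-response series (up to 46 uM) were applied to TMD8 dual-reporter cells for 4 h at 37C with doxycycline. Green/red ratio, after filter-overlap correction, defined %Activity; red signal alone was normalised to basal cells and zero luminescence.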
# Potency is the fitted concentration of half-maximal effect.
SMILES,"activity change, negative = inhibition",Potency
Cc1cc(-c2ccc(C(C)C)c(S(=O)(=O)Nc3cc(C)on3)c2)on1,inconclusive: 7.97%,–
O=C(COC(=O)c1ccccc1O)Nc1cccc2ccccc12,–,"inconclusive: 1.64 µM [falling, partial curve, poor fit]"
COC(=O)c1ccccc1NC(=O)Nc1cccnc1,–,"inconclusive: 10 µM [falling, partial curve, poor fit]"
COc1cc(NC(=O)CNC(c2ccccc2)c2ccccc2)cc(OC)c1OC,inconclusive: 0.192%,–
Cc1ccc(C(=O)NCCc2nnc3ccc(SCC(=O)Nc4ccc(C)cc4C)nn23)cc1,inconclusive: 1.43%,–
CCn1cc(CN2CCc3c([nH]c4ccccc34)C2c2ccc(F)c(OC)c2)c(C)n1 (stereo not given),inconclusive: -13%,–
Cc1nc2ccccc2c(=O)n1NCc1cc(Br)cs1,inactive: 7.45%,–
O=C(O)c1ccc(/C=N/NC(=S)NC2CCCCC2)cc1,–,"inconclusive: 15.8 µM [falling, partial curve]"
CCOC(=O)C1CCN(C(=O)Cn2cnc3sc(C)c(S(=O)(=O)N4CCOCC4)c3c2=O)CC1,inconclusive: 2.24%,–
Cc1ccc(C(=O)N2CCN(Cc3ccccc3)CC2)cc1S(=O)(=O)N1CCOCC1,inactive: -0.48%,–
Cn1c(=O)c([N+](=O)[O-])c(NCC2CCCO2)c2ccccc21 (stereo not given),inactive: -7.64%,–
COc1ncc(C2=CC(=O)CC(C)(C)C2)cn1,inactive: -0.292%,–
Cc1ccc(-c2cc(C(=O)O)c3cc(Br)ccc3n2)o1,inactive: -1.93%,–
O=S(=O)(Nc1ccc(S(=O)(=O)N2CCCCC2)cc1)c1ccc(Br)s1,–,"inconclusive: 20.6 µM [rising, partial curve, poor fit]"
COc1ccccc1OCCn1cc(C(=O)c2ccco2)c2ccccc21,inconclusive: 5.82%,–
CC(C)[C@H](N)C(=O)N1CCC(C(=O)N[C@@H](Cc2ccccc2)C(=O)NCc2ccc(F)cc2)CC1,inactive: 4.27%,–
Cc1cccc(-n2ncc3c(NCc4ccccn4)ncnc32)c1,inconclusive: -1.33%,–
COc1ccc(OC)c(NC(=O)CSc2nnc(C3CCCCC3)n2N)c1,inconclusive: 10.6%,–
COc1cccc(CNCCc2c[nH]c3ccccc23)c1OCc1ccccc1F,inconclusive: -12.3%,–
CCc1ccc(-c2nc(SCC(=O)c3c(N)n(C4CC4)c(=O)[nH]c3=O)n[nH]2)cc1,inconclusive: -0.627%,–
O=C(CCCCCNC(=O)N1CCn2c1nc1ccccc12)NCCc1ccccc1,inactive: -0.137%,–
Cc1nnc(SCC(=O)Nc2sc3c(c2C(N)=O)CCC(C)C3)[nH]c1=O (stereo not given),inactive: -0.252%,–
O=C(COC(=O)c1ccc(O)cc1)Nc1cccc(S(=O)(=O)N2CCCCC2)c1,inconclusive: 10.4%,–
CCOC(=O)C1CCN(C(=O)c2ccc3c(=O)n4nc(Nc5ccccc5)sc4nc3c2)CC1,–,"inconclusive: 25.1 µM [falling, single point]"
COc1cc(C(c2c(C)[nH][nH]c2=O)c2c(C)[nH][nH]c2=O)ccc1OS(=O)(=O)c1ccccc1,inconclusive: 5.49%,–
O=C(NCc1ccc(F)cc1)c1c2c(nc3ccccc13)CCC2,inactive: 4.38%,–
O=C1c2cc(Br)ccc2OC2C=CC=CC12 (stereo not given),inconclusive: 8.42%,–

# As a working copy, part of the list above:
SMILES,"activity change, negative = inhibition",Potency
CCc1ccc(-c2nc(SCC(=O)c3c(N)n(C4CC4)c(=O)[nH]c3=O)n[nH]2)cc1,inconclusive: -0.627%,–
O=C(CCCCCNC(=O)N1CCn2c1nc1ccccc12)NCCc1ccccc1,inactive: -0.137%,–
Cc1nnc(SCC(=O)Nc2sc3c(c2C(N)=O)CCC(C)C3)[nH]c1=O (stereo not given),inactive: -0.252%,–
O=C(COC(=O)c1ccc(O)cc1)Nc1cccc(S(=O)(=O)N2CCCCC2)c1,inconclusive: 10.4%,–
CCOC(=O)C1CCN(C(=O)c2ccc3c(=O)n4nc(Nc5ccccc5)sc4nc3c2)CC1,–,"inconclusive: 25.1 µM [falling, single point]"

# (continued)

SMILES,"activity change, negative = inhibition",Potency
O=C(COC(=O)Cc1ccsc1)Nc1ccccc1Cl,inconclusive: -5.09%,–
CCN1C(=O)C(O)(C2COC(C)(C)CC2=O)c2ccccc21 (stereo not given),inactive: -5.25%,–
COc1ccc(C(=O)c2cc([N+](=O)[O-])ccc2N2CCCC2)cc1,inconclusive: -5.29%,–
COc1ccc(CCNC(=O)C(=O)NCC2CCCN2S(=O)(=O)c2ccccc2)cc1OC (stereo not given),inactive: 0.871%,–
COc1cc(Cl)ccc1OCc1cc(C(=O)N2C[C@]3(C)C[C@H]2CC(C)(C)C3)no1,inactive: 2.99%,–
O=C(Nc1cc(Cl)ccc1O)c1snnc1-c1ccccc1,inconclusive: -0.599%,–
Cc1cc2c(s1)c1cnn(Cc3ccccc3F)c(=O)c1n2C,–,"inconclusive: 1.84 µM [rising, full curve, poor fit]"
Cc1nnnn1/C(=C\c1ccccc1)C(=O)OCC(=O)NC1CCCCC1,inconclusive: -13.8%,–
CCCNC(=O)c1cc2ccccc2c(=O)o1,inconclusive: -15%,–
COc1ccc(CCNC(=O)C2CCN(Cc3nc(-c4cccc(Cl)c4)oc3C)CC2)cc1OC,inactive: 15.3%,–
COc1ccc(Nc2nc(-c3cccnc3)nc3ccccc23)cn1,–,"inconclusive: 35.5 µM [falling, partial curve, poor fit]"
COC(=O)CNC(=O)C1CC(=O)N(CCc2ccc(F)cc2)C1 (stereo not given),inactive: -2.13%,–
C=CCn1c(C)nc2c(sc3nc4c(cc32)COC(C)(C)C4)c1=O,inconclusive: 1.45%,–
COc1ccc(NC(=O)c2cc(-c3cc(C)cc(C)c3O)n[nH]2)cc1Cl,inconclusive: 0.831%,–
COc1cc(/C=N/Nc2nc3ccccc3[nH]2)ccc1O,–,"inconclusive: 14.6 µM [falling, partial curve]"
Clc1ccc(-n2nnc(-c3cccnc3Cl)n2)cn1,inconclusive: 8.55%,–
O=C1CSc2ccc(S(=O)(=O)N3CCN(c4ccccc4F)CC3)cc2N1,inconclusive: 3.4%,–
COc1cc(OC)c2ccc(=O)oc2c1C(CC(=O)N1CCN(c2ccccc2)CC1)c1ccc2c(c1)OCO2 (stereo not given),inconclusive: 0.409%,–
COc1cc(/C=C/C(=O)OCC(=O)N2c3ccccc3NC(=O)C2(C)C)cc(OC)c1OC,inconclusive: -14.9%,–
Cc1cc(OC(C)C(=O)NC2CC(C)(C)NC(C)(C)C2)c2c(C)cc(=O)oc2c1 (stereo not given),inconclusive: 0.535%,–
C#CCOCCOCCOCCNc1nc(N2CCN(C(=O)CCCCCCCCCCNC(=O)Cn3cc(CCCCCN)nn3)CC2)nc(N2CCN(C(=O)CCCCCCCCCCNC(=O)[C@@H]([C@H](C)O)n3cc(C)nn3)CC2)n1,inconclusive: 6%,–
c1ccc(CCn2c3ccccc3c3nnc(SCc4ccc5nonc5c4)nc32)cc1,inactive: 5.52%,–
Cc1cccc(-n2ncc3c(Nc4c(C)cc(C)cc4C)ncnc32)c1,inconclusive: -27%,–
Cc1ccc(C2NC(=O)c3c(sc(C)c3C)N2)c(O)c1 (stereo not given),–,"inconclusive: 32.6 µM [falling, single point]"
COc1ccccc1NC(=S)NC(=O)C(C)C,–,"inconclusive: 12.6 µM [falling, partial curve]"
O=C(Nc1ccc(F)cc1)c1ccc2nc[nH]c2c1,–,"inconclusive: 17.8 µM [falling, partial curve]"
COCCCn1cc(C(=O)c2ccccc2OCC(=O)Nc2cccc(F)c2)cc(C#N)c1=O,–,"inconclusive: 2.82 µM [falling, partial curve, poor fit]"

SMILES,"activity change, negative = inhibition",Potency
CC1CCCC(NC(=O)CNCc2ccccc2F)C1C (stereo not given),inactive: 1.75%,–
Cc1ccc(-n2cc(-c3ccccc3)c3c(N4CCOCC4)ncnc32)cc1,inactive: 20.6%,–
CCn1c(SCC(=O)c2ccc3c(c2)OCCO3)nnc1-c1ccco1,inconclusive: 1.43%,–
N#Cc1ccc[n+](CC(=O)c2ccc(NC(=O)c3ccccc3)cc2)c1,inactive: -0.568%,–
CS(=O)(=O)c1cccc(C(=O)NCc2ccc(F)cc2)c1,–,"inconclusive: 5.17 µM [rising, partial curve, poor fit]"
COc1ccc2oc(C(=O)NCC3CCCO3)c(C)c2c1 (stereo not given),inconclusive: -14.5%,–
CCN(CC)c1cc2nonc2c2nonc12,inconclusive: -2.62%,–
CCN(CC)c1ccc(NC(=O)CC2Oc3ccccc3NC2=O)c(C)c1 (stereo not given),–,"inconclusive: 18.4 µM [falling, partial curve]"
CCOc1nc(NCCC2=CCCCC2)nc(N2CCOCC2)n1,inactive: 0.197%,–
COc1ccc(NC(=O)/C(Cl)=C(/Cl)S(=O)Cc2ccccc2)cn1 (stereo not given),–,"inconclusive: 5.8 µM [rising, full curve, poor fit]"
CC1CCCCC1NC(=O)Cn1cnc2ccccc2c1=O (stereo not given),inconclusive: 0.874%,–
COc1ccc(OC)c(NC(=O)N2CCCC(C(=O)c3ccccc3OC)C2)c1 (stereo not given),inconclusive: 0.0166%,–
Cc1ccc(C(=O)OCC(=O)Nc2cc(F)ccc2F)cc1NC(=O)c1ccco1,–,"inconclusive: 16.4 µM [falling, partial curve]"
COC(C(=O)Nc1ccc(S(=O)(=O)Nc2c(C)cccc2C)cc1)c1ccccc1 (stereo not given),inconclusive: -0.661%,–
Cc1cccn2c(NC(=O)c3ccccc3F)c(-c3ccccc3)nc12,inconclusive: -0.457%,–
Cc1cccc(-c2cc3nc(-c4ccccc4)cc(N4CCC5(CC4)OCCO5)n3n2)c1,inconclusive: 13.6%,–
COc1ccccc1N=c1scc(-c2ccc3c(c2)NC(=O)CO3)n1CC1CCCO1 (stereo not given),inconclusive: -0.224%,–
CCC1(C)Cc2ccccc2-c2nc(NCCCO)n(-c3ccccc3)c(=O)c21 (stereo not given),inactive: -21.6%,–
Cc1ccsc1C1C(C#N)=C(N)OC2=C1C(=O)CC(C)C2 (stereo not given),inconclusive: 28.7%,–
COc1ccccc1N1C(=N)S/C(=C\c2ccc(-c3ccccc3C(=O)O)o2)C1=O,inconclusive: 5.83%,–
O=C(CCC1N=C2c3ccccc3N=C(SCc3cccc(F)c3)N2C1=O)NCc1ccc(F)cc1 (stereo not given),–,"inconclusive: 0.398 µM [falling, full curve]"
Cc1ccc(N/N=C(\C#N)C(=N)N2CCCCC2)cc1,inconclusive: -23.3%,–
Cc1nc(SCC(=O)Nc2ccc(F)cc2)c(C#N)c(C)c1CC(=O)c1ccc(Br)cc1,inactive: 13%,–
COc1cc(/C=C/C(=O)N2CCCN(C(=O)/C=C/c3cc(OC)c(OC)c(OC)c3)CC2)cc(OC)c1OC,inactive: -14.7%,–
CCCCOC(=O)Nc1ccc(S(=O)(=O)Nc2ccc([N+](=O)[O-])cc2)cc1,inconclusive: 17%,–
CN(c1ccc(OCCOc2ccccc2Cl)cc1)S(=O)(=O)c1ccccc1,inactive: -1.02%,–
